Experimental data reported in the supplement of paper PMC10849652.
This is one part of the list.

Protein sequences, listed by entry. Tags and fused reporters are not part of them. Lines headed by an entry give the natural chain unless they say otherwise; changes in a name come on top.
UniProt Q9P0S9: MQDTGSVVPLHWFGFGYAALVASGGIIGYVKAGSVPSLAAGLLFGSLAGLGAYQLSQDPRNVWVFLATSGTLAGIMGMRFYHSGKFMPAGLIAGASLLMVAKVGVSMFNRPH
UniProt Q9Y4G6: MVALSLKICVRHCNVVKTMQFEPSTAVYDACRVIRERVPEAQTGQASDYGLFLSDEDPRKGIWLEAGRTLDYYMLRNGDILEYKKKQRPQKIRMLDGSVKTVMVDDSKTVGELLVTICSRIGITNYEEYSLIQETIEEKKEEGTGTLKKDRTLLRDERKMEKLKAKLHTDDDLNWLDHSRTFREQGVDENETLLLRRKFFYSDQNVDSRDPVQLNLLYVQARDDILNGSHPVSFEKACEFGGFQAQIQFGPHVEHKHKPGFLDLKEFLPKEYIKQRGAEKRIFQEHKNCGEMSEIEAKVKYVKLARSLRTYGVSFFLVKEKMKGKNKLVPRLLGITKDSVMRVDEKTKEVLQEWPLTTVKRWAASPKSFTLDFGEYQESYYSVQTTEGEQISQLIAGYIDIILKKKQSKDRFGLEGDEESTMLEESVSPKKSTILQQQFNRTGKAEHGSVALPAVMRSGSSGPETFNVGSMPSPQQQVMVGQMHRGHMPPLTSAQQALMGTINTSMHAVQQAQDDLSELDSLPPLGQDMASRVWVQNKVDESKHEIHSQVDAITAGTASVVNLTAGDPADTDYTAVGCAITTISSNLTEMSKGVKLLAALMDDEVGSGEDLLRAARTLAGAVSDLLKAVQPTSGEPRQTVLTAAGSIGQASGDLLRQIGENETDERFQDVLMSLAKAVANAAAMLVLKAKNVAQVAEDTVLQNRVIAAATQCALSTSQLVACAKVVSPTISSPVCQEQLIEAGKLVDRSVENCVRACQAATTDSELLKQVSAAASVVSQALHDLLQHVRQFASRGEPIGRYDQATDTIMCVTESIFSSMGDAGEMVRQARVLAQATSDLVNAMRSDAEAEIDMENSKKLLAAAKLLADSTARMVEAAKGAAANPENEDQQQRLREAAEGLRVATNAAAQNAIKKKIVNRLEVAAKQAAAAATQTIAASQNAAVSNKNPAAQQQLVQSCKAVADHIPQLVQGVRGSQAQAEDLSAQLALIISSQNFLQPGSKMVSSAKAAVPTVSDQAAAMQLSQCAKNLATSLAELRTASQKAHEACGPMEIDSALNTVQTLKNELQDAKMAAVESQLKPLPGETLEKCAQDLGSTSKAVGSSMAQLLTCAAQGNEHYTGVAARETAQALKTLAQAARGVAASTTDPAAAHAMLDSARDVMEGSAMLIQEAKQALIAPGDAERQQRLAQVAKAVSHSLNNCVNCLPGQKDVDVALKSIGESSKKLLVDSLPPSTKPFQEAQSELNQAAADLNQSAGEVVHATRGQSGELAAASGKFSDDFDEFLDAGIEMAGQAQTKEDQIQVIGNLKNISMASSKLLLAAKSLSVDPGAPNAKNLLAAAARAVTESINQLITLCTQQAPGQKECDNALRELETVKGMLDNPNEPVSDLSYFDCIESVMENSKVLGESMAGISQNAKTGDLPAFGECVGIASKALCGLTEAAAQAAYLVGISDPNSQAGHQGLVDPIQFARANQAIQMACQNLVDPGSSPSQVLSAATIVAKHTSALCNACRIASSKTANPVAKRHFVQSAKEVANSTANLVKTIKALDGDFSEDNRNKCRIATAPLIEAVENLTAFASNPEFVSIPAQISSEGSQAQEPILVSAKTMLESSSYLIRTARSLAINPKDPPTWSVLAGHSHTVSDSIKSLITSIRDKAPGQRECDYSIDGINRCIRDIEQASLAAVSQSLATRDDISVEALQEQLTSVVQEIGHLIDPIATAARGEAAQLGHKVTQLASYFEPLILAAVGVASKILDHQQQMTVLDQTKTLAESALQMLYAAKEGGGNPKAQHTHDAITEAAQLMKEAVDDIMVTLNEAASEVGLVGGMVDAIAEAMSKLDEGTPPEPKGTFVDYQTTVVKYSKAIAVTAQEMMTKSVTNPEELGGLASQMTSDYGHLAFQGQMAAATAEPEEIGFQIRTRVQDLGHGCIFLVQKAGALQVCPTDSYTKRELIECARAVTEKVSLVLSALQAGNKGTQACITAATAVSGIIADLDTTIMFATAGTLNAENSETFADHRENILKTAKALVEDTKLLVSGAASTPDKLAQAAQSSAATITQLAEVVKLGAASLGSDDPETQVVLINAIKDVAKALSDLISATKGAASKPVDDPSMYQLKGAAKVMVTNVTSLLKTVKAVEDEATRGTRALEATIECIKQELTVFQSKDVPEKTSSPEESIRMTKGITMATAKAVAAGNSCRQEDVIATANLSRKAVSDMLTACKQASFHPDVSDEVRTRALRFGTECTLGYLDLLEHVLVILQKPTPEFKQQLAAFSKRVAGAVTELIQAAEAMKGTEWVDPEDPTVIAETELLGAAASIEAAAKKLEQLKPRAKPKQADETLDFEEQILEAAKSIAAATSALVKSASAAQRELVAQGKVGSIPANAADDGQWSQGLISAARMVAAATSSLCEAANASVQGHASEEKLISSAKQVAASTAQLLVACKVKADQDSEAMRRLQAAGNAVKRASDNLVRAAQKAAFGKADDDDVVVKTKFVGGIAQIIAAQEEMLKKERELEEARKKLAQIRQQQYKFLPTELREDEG
UniProt Q9BVC6: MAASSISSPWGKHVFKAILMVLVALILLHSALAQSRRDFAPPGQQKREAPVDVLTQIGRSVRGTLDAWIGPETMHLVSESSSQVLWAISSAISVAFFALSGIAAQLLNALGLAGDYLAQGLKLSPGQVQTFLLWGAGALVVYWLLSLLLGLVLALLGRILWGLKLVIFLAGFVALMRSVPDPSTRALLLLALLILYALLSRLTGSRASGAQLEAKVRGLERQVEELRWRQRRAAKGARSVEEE
UniProt Q96I45: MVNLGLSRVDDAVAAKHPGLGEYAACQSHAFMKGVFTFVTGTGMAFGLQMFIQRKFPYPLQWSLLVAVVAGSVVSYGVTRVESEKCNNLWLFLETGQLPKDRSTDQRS
UniProt P42167: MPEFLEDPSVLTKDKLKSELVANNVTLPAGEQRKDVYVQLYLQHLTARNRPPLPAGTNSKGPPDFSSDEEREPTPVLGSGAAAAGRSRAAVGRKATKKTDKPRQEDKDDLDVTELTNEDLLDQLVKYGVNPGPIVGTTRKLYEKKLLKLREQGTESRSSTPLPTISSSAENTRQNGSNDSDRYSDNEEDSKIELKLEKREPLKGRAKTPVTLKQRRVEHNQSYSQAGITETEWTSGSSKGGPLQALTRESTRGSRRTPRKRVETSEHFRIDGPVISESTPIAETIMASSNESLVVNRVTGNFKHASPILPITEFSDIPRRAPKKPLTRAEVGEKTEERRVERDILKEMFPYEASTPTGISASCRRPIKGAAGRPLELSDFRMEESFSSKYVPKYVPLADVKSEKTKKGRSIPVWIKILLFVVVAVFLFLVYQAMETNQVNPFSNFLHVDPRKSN
UniProt Q9NYL9: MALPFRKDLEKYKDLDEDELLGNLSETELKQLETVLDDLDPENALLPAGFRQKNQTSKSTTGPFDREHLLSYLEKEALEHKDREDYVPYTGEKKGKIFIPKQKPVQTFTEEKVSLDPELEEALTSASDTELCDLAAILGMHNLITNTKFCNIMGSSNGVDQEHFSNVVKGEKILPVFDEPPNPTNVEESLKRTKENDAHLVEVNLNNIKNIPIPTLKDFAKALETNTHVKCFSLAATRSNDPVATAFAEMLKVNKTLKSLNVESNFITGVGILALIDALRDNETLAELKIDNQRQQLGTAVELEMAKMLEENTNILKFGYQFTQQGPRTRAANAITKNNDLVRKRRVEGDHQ
UniProt Q9H0R3: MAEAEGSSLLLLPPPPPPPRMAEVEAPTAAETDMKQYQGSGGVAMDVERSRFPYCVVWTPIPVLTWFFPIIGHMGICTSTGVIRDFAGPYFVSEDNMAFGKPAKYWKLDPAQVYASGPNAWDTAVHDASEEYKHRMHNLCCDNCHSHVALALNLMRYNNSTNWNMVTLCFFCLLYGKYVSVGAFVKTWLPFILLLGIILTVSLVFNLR
UniProt Q9UM00: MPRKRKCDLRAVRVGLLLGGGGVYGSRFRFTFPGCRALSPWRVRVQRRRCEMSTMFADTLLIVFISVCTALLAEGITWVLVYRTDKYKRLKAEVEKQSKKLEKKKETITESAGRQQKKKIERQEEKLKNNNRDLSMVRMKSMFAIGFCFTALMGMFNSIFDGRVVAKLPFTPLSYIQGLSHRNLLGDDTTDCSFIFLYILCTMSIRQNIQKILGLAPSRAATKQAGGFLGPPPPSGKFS
UniProt Q9H1E5: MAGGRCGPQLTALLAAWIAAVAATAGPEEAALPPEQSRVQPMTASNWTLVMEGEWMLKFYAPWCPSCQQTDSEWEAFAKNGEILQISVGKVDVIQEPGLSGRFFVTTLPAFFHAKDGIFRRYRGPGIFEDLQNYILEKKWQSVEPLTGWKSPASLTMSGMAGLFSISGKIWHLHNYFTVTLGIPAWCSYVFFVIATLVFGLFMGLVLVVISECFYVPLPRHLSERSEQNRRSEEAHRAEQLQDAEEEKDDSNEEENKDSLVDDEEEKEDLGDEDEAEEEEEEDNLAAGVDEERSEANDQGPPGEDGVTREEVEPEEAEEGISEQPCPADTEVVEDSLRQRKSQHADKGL
UniProt Q4ZIN3: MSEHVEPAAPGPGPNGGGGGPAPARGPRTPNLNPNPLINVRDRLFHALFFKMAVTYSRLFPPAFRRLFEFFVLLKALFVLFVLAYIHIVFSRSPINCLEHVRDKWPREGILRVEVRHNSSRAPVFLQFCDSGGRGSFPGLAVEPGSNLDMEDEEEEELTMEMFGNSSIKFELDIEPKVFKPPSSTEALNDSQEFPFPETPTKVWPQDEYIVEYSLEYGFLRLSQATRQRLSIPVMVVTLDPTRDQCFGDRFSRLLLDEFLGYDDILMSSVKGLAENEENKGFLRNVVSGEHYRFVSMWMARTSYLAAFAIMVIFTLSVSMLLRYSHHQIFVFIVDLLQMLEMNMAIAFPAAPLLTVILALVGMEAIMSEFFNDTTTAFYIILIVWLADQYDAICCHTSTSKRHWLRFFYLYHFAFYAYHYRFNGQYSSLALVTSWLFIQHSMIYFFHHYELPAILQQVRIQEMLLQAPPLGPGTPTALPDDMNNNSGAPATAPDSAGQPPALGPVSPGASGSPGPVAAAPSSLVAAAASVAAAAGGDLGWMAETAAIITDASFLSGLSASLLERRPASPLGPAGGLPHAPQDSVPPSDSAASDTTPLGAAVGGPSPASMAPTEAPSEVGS
UniProt P63313: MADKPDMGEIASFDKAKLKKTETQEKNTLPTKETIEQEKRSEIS
UniProt Q9Y3Q3: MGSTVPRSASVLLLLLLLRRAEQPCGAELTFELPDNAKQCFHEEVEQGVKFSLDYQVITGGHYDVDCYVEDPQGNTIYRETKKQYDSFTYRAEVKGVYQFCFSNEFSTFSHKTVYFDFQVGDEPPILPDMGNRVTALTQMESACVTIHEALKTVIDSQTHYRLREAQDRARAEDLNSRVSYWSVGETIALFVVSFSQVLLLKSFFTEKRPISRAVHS
UniProt Q96SK2: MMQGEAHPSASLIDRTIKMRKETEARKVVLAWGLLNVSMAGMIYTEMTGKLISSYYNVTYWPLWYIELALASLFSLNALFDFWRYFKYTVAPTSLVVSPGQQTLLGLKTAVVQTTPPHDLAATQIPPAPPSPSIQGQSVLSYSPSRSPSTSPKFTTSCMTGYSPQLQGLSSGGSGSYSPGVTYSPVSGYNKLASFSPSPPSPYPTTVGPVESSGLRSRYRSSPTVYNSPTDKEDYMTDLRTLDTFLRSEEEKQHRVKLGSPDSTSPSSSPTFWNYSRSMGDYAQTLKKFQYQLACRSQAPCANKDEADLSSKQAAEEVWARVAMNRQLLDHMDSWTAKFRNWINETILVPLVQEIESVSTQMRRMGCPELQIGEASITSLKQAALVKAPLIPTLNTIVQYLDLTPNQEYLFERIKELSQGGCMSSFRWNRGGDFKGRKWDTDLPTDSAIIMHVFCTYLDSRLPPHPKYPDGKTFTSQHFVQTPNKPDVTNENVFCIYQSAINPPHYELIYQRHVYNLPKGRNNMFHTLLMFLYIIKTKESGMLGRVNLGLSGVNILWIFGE
UniProt Q96A57: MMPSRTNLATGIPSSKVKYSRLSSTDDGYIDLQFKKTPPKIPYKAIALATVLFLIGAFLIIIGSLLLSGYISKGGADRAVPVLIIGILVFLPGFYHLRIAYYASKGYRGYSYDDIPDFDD
UniProt Q13445: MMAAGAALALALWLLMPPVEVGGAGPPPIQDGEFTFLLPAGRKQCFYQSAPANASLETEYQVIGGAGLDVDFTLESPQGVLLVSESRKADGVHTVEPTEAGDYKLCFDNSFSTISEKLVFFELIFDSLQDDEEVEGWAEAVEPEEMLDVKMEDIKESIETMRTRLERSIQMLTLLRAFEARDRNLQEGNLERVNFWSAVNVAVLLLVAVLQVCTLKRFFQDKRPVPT
UniProt P17152: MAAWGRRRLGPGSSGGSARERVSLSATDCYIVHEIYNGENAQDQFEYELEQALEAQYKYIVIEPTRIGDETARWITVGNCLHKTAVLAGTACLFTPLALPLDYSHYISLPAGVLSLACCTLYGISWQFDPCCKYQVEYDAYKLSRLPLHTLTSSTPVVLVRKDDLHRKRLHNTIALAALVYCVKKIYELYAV

Compound: COc1cccc2cc(-c3nc([C@H]4CC[C@H](C(=O)O)CC4)n4ncnc(N)c34)[nH]c12
Assay: log2 fold change, soluble protein after heating vs DMSO (PISA); higher = thermal stabilisation; K562 cells, 10 uM, 30 min; active = over 0.2 and 3.5 SD of the protein, either way, in both replicates (recomputed)
Method in brief: (§1)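 K562 cells at 2×10^6 cells/mL were treated with 10 μM compound for 30 min. Aliquots were heated for 3 min across 48°C-58°C, pooled, and extracted in PBS with 0.5% NP-40 at 4°C; soluble protein was the supernatant after 21,000xg for 90 min. Soluble protein was quantified by TMTpro 16plex LC-MS/MS with channel sums equalised, and reported as log2 fold change in thermal stability against DMSO controls, with values from duplicates.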

log2 fold change, inactive:
TMEM245 (UniProt Q9H330) 0.066, TMEM167A (UniProt Q8TBQ9) -0.031, TMOD2 (UniProt Q9NZR1) 0.093, TMED4 (UniProt Q7Z7H5) 0.079, TMEM14C (UniProt Q9P0S9) 0.043, TLN2 (UniProt Q9Y4G6) -0.139, TMEM109 (UniProt Q9BVC6) 0.046, TM2D3 (UniProt Q9BRN9) 0.121, TMEM186 (UniProt Q96B77) 0.13, TMEM141 (UniProt Q96I45) 0.112, TMEM65 (UniProt Q6PI78) -0.079, TMEM87A (UniProt Q8NBN3) 0.049, TMEM33 (UniProt P57088) 0.049, TLN1 (UniProt Q9Y490) -0.049, TNFRSF10B (UniProt O14763) 0.049, TMEM160 (UniProt Q9NX00) -0.087, TM9SF3 (UniProt Q9HD45) 0.034, TMPO isoform 2 (UniProt P42167) 0.005, TMOD3 (UniProt Q9NYL9) -0.034, TMEM222 (UniProt Q9H0R3) 0.05, TMEM185B (UniProt Q9H7F4) 0.015, TMA16 (UniProt Q96EY4) -0.095, TMEM30A (UniProt Q9NV96) -0.009, TMEM68 (UniProt Q96MH6) 0.06, TMCO1 (UniProt Q9UM00) 0.048, TMED2 (UniProt Q15363) 0.063, TMX4 (UniProt Q9H1E5) 0.06, TMEM168 (UniProt Q9H0V1) 0.074, TMPO (UniProt P42166) 0.006, TMEM259 (UniProt Q4ZIN3) -0.013, TMSB10 (UniProt P63313) 0.023, TMEM248 (UniProt Q9NWD8) 0.155, TMED3 (UniProt Q9Y3Q3) 0, TMEM209 (UniProt Q96SK2) 0.009, TMEM230 isoform 2 (UniProt Q96A57) -0.029, TMED1 (UniProt Q13445) 0.041, TMPO (UniProt P42167) 0.015, TMEM62 (UniProt Q0P6H9) 0.101, TMEM11 (UniProt P17152) 0.059

Compound: CS(=O)(=O)CCNCc1ccc(-c2ccc3ncnc(Nc4ccc(OCc5cccc(F)c5)c(Cl)c4)c3c2)o1 [lapatinib]
Assay: as above
Method in brief: as §1

log2 fold change, inactive:
TMEM245 (UniProt Q9H330) 0.03, TMEM167A (UniProt Q8TBQ9) 0.021, TMOD2 (UniProt Q9NZR1) 0.036, TMED4 (UniProt Q7Z7H5) -0.017, TMEM14C (UniProt Q9P0S9) -0.124, TLN2 (UniProt Q9Y4G6) 0.065, TMEM109 (UniProt Q9BVC6) -0.088, TM2D3 (UniProt Q9BRN9) -0.063, TMEM186 (UniProt Q96B77) 0.081, TMEM141 (UniProt Q96I45) -0.028, TMEM65 (UniProt Q6PI78) -0.015, TMEM87A (UniProt Q8NBN3) 0.03, TMEM33 (UniProt P57088) 0.032, TLN1 (UniProt Q9Y490) -0.011, TNFRSF10B (UniProt O14763) -0.02, TMEM160 (UniProt Q9NX00) -0.01, TM9SF3 (UniProt Q9HD45) 0.008, TMPO isoform 2 (UniProt P42167) -0.342, TMOD3 (UniProt Q9NYL9) 0.037, TMEM222 (UniProt Q9H0R3) -0.09, TMEM185B (UniProt Q9H7F4) -0.03, TMA16 (UniProt Q96EY4) 0.087, TMEM30A (UniProt Q9NV96) -0.043, TMEM68 (UniProt Q96MH6) 0.016, TMCO1 (UniProt Q9UM00) -0.075, TMED2 (UniProt Q15363) 0.086, TMX4 (UniProt Q9H1E5) -0.033, TMEM168 (UniProt Q9H0V1) -0.042, TMPO (UniProt P42166) -0.081, TMEM259 (UniProt Q4ZIN3) -0.005, TMSB10 (UniProt P63313) -0.17, TMEM248 (UniProt Q9NWD8) 0.043, TMED3 (UniProt Q9Y3Q3) 0.044, TMEM209 (UniProt Q96SK2) -0.105, TMEM230 isoform 2 (UniProt Q96A57) -0.057, TMED1 (UniProt Q13445) 0.162, TMPO (UniProt P42167) -0.039, TMEM62 (UniProt Q0P6H9) 0.115, TMEM11 (UniProt P17152) -0.002
